Reference: the supplement of paper PMC10849652
The other results are listed elsewhere or left out.

By UniProt entry, the sequences of proteins in these tests, tags left out. Where a name states a change or a piece, a line headed by the entry shows the natural chain unless it says otherwise.
UniProt P41219, whole entry, looked up: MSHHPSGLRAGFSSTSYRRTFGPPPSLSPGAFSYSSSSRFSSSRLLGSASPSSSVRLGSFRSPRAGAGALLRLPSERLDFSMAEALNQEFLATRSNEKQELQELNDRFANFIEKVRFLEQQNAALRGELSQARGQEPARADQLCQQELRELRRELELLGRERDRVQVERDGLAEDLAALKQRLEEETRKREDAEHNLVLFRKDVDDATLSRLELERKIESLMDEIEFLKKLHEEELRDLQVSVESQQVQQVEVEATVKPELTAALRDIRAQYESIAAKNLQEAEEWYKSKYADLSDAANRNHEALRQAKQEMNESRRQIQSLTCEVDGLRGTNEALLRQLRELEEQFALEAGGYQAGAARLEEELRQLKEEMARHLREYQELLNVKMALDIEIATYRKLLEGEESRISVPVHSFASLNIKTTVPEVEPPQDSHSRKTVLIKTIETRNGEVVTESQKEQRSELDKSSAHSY
UniProt P28072: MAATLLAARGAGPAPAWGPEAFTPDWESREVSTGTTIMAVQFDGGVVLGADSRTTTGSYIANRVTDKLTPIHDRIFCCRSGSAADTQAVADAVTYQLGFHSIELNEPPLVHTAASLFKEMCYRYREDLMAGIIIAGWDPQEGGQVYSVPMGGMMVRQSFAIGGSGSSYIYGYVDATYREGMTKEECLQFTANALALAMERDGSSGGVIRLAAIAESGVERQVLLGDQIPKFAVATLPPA
UniProt Q12913: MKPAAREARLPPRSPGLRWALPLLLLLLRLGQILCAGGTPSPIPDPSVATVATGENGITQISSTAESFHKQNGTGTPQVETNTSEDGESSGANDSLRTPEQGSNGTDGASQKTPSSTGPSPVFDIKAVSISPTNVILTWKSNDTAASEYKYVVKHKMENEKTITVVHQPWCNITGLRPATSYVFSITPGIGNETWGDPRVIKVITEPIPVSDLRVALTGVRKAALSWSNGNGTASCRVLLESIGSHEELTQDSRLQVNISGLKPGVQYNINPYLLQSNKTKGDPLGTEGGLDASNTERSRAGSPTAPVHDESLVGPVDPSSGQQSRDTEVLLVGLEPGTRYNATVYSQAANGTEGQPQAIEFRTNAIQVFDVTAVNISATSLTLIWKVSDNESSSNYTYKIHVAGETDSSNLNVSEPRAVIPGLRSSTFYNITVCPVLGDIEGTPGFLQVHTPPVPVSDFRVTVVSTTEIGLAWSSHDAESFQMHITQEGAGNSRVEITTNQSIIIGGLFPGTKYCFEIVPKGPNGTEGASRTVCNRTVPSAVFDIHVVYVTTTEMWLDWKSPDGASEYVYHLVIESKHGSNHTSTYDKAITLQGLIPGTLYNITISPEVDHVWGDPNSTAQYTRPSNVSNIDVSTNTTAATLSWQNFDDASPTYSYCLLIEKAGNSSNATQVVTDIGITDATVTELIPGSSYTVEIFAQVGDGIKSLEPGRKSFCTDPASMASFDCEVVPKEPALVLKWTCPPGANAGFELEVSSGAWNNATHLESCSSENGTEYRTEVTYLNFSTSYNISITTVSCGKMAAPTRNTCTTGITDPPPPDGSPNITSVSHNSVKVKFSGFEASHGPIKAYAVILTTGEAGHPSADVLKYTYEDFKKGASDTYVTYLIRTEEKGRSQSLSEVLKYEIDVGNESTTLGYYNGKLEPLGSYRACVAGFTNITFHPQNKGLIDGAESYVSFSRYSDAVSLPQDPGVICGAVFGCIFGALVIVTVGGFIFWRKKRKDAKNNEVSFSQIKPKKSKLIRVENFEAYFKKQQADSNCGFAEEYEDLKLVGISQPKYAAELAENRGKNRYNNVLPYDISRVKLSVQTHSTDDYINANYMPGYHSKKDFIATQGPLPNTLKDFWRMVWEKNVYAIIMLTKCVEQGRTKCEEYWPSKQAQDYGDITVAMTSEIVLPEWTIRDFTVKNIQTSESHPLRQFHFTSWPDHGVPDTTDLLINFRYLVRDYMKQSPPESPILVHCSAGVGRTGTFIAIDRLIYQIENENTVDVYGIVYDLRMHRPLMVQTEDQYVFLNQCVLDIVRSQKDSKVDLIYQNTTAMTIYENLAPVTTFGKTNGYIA
UniProt Q9Y6M0: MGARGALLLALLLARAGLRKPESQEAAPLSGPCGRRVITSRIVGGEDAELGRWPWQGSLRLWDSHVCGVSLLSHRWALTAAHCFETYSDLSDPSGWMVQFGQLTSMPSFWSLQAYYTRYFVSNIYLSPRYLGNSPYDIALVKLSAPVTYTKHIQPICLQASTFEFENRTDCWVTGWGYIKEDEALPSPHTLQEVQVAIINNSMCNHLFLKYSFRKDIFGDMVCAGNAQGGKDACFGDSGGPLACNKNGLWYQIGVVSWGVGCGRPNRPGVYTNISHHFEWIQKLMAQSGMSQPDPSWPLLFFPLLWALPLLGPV
UniProt Q5JS54: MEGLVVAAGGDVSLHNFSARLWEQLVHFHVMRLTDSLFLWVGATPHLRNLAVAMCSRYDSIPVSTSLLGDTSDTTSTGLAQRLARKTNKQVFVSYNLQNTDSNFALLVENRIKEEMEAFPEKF
UniProt P43686, whole entry, looked up: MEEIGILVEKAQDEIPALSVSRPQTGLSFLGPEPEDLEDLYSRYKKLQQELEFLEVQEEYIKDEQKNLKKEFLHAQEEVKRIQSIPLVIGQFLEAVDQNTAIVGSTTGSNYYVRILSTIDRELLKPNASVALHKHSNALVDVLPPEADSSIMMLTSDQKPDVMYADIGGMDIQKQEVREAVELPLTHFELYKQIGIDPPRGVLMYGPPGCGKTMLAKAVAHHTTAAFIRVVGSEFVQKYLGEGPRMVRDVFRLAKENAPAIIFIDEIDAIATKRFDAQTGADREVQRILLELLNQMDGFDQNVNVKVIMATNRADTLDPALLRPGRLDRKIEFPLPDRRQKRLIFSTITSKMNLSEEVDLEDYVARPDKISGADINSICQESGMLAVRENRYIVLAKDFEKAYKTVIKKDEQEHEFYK
UniProt P28070, whole entry, looked up: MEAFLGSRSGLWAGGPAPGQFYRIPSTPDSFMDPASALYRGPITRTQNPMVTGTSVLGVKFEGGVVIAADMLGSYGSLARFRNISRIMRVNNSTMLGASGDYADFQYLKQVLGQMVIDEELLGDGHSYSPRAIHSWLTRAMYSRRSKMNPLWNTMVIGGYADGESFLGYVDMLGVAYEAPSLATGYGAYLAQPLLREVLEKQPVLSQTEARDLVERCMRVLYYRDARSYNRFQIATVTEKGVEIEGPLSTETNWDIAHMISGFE
UniProt Q9Y3E5: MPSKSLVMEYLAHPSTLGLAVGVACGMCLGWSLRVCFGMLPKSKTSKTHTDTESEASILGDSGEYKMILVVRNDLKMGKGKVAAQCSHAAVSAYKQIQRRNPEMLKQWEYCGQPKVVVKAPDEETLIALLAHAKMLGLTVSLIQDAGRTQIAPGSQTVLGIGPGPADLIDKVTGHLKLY
UniProt Q96BW5: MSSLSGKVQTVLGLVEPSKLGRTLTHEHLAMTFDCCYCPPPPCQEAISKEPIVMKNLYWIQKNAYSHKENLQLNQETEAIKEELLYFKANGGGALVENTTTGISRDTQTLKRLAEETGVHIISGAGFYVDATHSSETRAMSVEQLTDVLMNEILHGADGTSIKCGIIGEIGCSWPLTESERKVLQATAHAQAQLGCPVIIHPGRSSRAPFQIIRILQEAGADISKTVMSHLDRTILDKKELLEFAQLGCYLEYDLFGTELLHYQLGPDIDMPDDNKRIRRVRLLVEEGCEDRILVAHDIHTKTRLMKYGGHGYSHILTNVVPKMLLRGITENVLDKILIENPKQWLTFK
UniProt P25787: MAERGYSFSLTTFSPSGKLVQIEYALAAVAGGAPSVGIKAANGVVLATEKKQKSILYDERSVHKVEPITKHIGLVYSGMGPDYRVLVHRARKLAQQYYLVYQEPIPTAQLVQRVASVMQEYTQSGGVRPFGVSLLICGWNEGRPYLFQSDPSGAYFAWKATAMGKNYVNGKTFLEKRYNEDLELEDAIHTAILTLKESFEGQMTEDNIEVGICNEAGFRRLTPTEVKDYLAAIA
UniProt Q96M27: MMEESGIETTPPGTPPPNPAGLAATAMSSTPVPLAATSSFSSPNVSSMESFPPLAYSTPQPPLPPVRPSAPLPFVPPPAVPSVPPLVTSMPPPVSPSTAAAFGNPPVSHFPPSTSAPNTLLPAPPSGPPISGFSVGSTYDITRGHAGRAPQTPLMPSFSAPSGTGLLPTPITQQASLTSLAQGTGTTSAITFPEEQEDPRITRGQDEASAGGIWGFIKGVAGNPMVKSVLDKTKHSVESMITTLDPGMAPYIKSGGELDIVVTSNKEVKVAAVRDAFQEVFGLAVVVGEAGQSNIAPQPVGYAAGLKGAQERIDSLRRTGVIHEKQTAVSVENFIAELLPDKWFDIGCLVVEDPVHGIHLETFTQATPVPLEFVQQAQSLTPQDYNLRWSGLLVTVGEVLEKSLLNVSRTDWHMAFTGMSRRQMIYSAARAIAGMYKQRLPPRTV
UniProt P25789: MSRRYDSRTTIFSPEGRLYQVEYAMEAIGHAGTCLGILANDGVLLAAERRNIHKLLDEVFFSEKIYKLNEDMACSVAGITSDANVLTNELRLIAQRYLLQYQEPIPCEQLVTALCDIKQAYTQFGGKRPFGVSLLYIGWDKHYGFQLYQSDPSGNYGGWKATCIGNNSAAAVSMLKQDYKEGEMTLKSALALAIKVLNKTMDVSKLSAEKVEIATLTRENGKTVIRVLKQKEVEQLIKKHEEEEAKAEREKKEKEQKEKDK
UniProt P51665: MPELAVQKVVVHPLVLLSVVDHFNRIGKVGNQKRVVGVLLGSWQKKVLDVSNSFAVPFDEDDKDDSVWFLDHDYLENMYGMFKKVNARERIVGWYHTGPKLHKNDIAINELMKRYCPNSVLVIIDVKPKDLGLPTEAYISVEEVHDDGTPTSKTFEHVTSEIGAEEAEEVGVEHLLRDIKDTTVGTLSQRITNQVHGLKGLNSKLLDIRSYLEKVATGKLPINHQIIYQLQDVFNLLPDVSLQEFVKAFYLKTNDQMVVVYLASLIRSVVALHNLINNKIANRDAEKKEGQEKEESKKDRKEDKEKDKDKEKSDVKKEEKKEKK
UniProt Q15397: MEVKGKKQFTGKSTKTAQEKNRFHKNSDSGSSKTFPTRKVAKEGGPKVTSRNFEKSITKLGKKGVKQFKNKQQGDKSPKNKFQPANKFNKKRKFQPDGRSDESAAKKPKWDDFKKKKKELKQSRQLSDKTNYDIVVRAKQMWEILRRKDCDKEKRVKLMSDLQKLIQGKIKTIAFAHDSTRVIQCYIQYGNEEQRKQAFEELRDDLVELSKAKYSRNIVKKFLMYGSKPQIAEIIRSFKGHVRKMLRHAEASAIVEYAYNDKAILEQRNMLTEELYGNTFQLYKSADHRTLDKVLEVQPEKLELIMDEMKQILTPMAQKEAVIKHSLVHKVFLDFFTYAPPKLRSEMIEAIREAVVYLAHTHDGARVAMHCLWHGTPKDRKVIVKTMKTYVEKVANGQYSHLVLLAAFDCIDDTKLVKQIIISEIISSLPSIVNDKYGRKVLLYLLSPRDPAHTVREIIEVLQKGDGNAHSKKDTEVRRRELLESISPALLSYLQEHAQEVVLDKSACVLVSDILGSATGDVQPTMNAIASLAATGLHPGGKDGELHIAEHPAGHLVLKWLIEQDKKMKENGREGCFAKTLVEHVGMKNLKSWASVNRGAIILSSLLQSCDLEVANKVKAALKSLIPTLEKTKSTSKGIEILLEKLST
UniProt P61289: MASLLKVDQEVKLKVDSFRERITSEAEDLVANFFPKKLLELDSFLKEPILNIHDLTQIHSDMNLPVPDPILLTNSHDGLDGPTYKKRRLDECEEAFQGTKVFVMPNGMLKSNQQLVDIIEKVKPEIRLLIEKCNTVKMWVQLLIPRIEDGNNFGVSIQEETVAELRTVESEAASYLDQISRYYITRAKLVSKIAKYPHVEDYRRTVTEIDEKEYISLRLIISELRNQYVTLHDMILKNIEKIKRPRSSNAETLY
UniProt Q16401: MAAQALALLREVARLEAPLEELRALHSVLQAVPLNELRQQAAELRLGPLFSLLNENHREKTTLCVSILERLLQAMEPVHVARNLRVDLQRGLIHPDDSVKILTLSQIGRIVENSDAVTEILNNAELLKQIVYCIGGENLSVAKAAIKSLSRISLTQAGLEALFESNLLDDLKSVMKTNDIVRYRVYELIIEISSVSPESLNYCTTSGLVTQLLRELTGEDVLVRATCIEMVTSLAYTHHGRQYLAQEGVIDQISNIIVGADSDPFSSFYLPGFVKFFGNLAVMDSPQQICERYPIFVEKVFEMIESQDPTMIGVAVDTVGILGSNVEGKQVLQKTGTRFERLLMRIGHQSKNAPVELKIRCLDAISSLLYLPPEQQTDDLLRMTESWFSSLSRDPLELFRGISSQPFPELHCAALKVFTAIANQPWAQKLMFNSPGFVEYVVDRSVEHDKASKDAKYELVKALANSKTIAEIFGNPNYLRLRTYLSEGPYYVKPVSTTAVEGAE
UniProt P49721: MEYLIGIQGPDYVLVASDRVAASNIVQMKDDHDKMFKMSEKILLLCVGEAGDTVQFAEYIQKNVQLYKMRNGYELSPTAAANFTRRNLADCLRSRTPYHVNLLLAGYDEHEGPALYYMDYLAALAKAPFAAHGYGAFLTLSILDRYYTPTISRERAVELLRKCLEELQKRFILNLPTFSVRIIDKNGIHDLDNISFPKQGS

Key:
Test in all cases: log2 fold change, soluble protein after heating vs DMSO (PISA); higher = thermal stabilisation; K562 lysate, 10 uM; active = over 0.2 and 3.5 SD of the protein, either way, in both replicates (recomputed)
[1] = compound: NCC(=O)Nc1ccc(-n2nc(C(F)(F)F)cc2-c2ccc3c(ccc4ccccc43)c2)cc1
Summary of the method: (§1)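 K562 pellets were dounce-homogenised in PBS pH 7.4 with 1 mM MgCl2, and the crude extract at 1 mg/mL protein was treated with 10 μM compound for 30 min. Aliquots were heated for 3 min across 48°C-58°C, pooled, and brought to 0.5% NP-40 at 4°C; soluble protein was the supernatant after 21,000xg for 90 min. Soluble protein was quantified by TMTpro 16plex LC-MS/MS with channel sums equalised, and reported as log2 fold change in thermal stability against DMSO controls, with values from duplicates.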

[2] = compound: O=C(CCCCCCC(=O)Nc1ccccc1)NO [vorinostat]
Summary of the method: as §1

[3] = compound: O=C(O)c1ccc2c(c1)nc(Nc1cccc(Cl)c1)c1ccncc12 [silmitasertib]
Summary of the method: as §1

[4] = compound: O=C1NC(=O)C(c2cnc3ccccn23)=C1c1cn2c3c(cc(F)cc13)CN(C(=O)N1CCCCC1)CC2
Summary of the method: as §1

[5] = compound: c1cn2cc(-c3ccc4cn[nH]c4c3)nc(Nc3ccc(N4CCOCC4)cc3)c2n1 [entospletinib]
Summary of the method: as §1

Measured: log2 fold change

PTPRA (UniProt P18433)
inactive: [1] -0.015 | [2] -0.056 | [3] 0.024 | [4] -0.072 | [5] 0.026

PRPH isoform 2 (UniProt P41219)
inactive: [1] 0 | [2] 0.112 | [3] 0.001 | [4] -0.098 | [5] -0.052

PTPN11 isoform 1 (UniProt Q06124)
inactive: [1] 0 | [2] -0.003 | [3] -0.011 | [4] -0.019 | [5] 0.009

PSMB6 (UniProt P28072)
inactive: [1] 0.017 | [2] 0.136 | [3] -0.008 | [4] -0.025 | [5] -0.001

PTPRJ (UniProt Q12913)
inactive: [1] -0.014 | [2] 0.058 | [3] -0.037 | [4] 0.016 | [5] -0.023

PRSS21 (UniProt Q9Y6M0)
inactive: [1] -0.021 | [2] 0.027 | [3] 0.038 | [4] -0.003 | [5] 0.019

PSMG4 isoform 2 (UniProt Q5JS54)
inactive: [1] -0.039 | [2] 0 | [3] -0.031 | [4] 0.033 | [5] -0.018

PSMC4 (UniProt P43686)
inactive: [1] 0.006 | [2] -0.017 | [3] -0.004 | [4] 0.007 | [5] 0.02

PSMB4 (UniProt P28070)
inactive: [1] 0.003 | [2] 0.144 | [3] 0.002 | [4] 0.015 | [5] 0.002

PTRH2 (UniProt Q9Y3E5)
inactive: [1] -0.008 | [2] -0.023 | [3] 0 | [4] 0.06 | [5] -0.007

PTER (UniProt Q96BW5)
inactive: [1] 0.027 | [2] 0.117 | [3] 0.011 | [4] -0.046 | [5] 0.01

PSMA5 (UniProt P28066)
inactive: [1] 0.014 | [2] 0.096 | [3] -0.03 | [4] 0.023 | [5] -0.004

PWP1 (UniProt Q13610)
inactive: [1] -0.082 | [2] 0.139 | [3] -0.033 | [4] 0.022 | [5] -0.003

PSMA2 (UniProt P25787)
inactive: [1] 0.009 | [2] 0.147 | [3] -0.018 | [4] 0.024 | [5] 0.028

PRRC1 (UniProt Q96M27)
inactive: [1] 0.018 | [2] 0.142 | [3] 0.001 | [4] -0.003 | [5] -0.025

PRR14L (UniProt Q5THK1)
inactive: [1] 0.027 | [2] -0.022 | [3] 0.021 | [4] -0.058 | [5] 0.004

PRRC2B (UniProt Q5JSZ5)
inactive: [1] -0.13 | [2] -0.06 | [3] 0.027 | [4] 0.008 | [5] 0.002

PSMA4 (UniProt P25789)
inactive: [1] 0.014 | [2] 0.089 | [3] -0.011 | [4] -0.008 | [5] 0.012

PSMD7 (UniProt P51665)
inactive: [1] 0.003 | [2] 0.026 | [3] 0.004 | [4] 0.006 | [5] -0.008

2 entries drawn at random from those above, as already listed:
PRR14L (UniProt Q5THK1)
inactive: [1] 0.027 | [2] -0.022 | [3] 0.021 | [4] -0.058 | [5] 0.004

PSMD7 (UniProt P51665)
inactive: [1] 0.003 | [2] 0.026 | [3] 0.004 | [4] 0.006 | [5] -0.008

(continued)

PUM3 (UniProt Q15397)
inactive: [1] 0 | [2] -0.014 | [3] -0.013 | [4] -0.005 | [5] -0.007

PTGES2 (UniProt Q9H7Z7)
inactive: [1] -0.175 | [2] -0.197 | [3] 0.304 | [4] 0.12 | [5] 0.085

PSME3 isoform 2 (UniProt P61289)
inactive: [1] -0.011 | [2] 0.068 | [3] -0.004 | [4] -0.007 | [5] -0.017

PSMD5 (UniProt Q16401)
inactive: [1] 0.012 | [2] 0.042 | [3] -0.004 | [4] -0.005 | [5] -0.009

PSMB2 (UniProt P49721)
inactive: [1] -0.047 | [2] 0.103 | [3] -0.009 | [4] 0.004 | [5] -0.054
